Data: US20170371042A1, “CONTRAST AGENT FOR OPTICAL IMAGING, USE THEREOF AND APPARATUS USING THE SAME” (KYUNGPOOK NATIONAL UNIVERSITY INDUSTRY- ACADEMIC …, priority 2009, published 2017)

Columns and labels:
[1] = In vitro luminescence imaging (IVIS 200) of radionuclide solutions in 96-well plate; type: physicochemical; conditions: for activity concentration at which light was detected by luminescence imaging: 300 μL of water, ^68Ga detected clearly up to this, ^99mTc only very faint light at this; for Relative intensity (IVIS200): values in parentheses, calculated from IVIS 200 data, ^131I = 1; for luminescence signal strength among five radioisotopes (IVIS 200 image): 96-well plate, 300 μL aqueous solution, similar activity concentrations, 1 minute scan
[2] = In vitro luminometric assay of radionuclide solutions; type: physicochemical; conditions: for increase in light signal with increasing activity: in vitro luminometer, consecutively diluted concentrations; for Relative intensity (in vitro luminometer): luminescence signal of ^131I set to 1, slope of line of best fit, 470 nm
[3] = Comparison of luminescence intensities between [^18F]FDG and free [^18F]KF ion (luminometer); type: physicochemical; conditions: similar radioactivity in 300 μL aqueous solution, in vitro luminometer
[4] = Tissue penetration of Cerenkov imaging, injection into back muscle; type: in vivo, Sprague-Dawley rats
[5] = Spatial resolution of Cerenkov imaging with Derenzo phantom; type: physicochemical; conditions: 32 μCi/mL ^124I solution

| Compound | Relative intensity (IVIS200) [1] | increase in light signal with increasing activity [2] | Relative intensity (in vitro luminometer) [2] | luminescence signal strength among five radioisotopes (IVIS 200 image) [1] | other results |
| --- | --- | --- | --- | --- | --- |
| [68Ga+3].[Cl-].[Cl-].[Cl-] [^68Ga, [^68Ga]GaCl3] | (24.2) | – | – | – | activity concentration at which light was detected by luminescence imaging [1]: 0.5 μCi/mL; relative intensity of ^68Ga versus ^124I ([1]; ratio of relative luminescence intensities): more than 4 times |
| [Cl][111In]([Cl])[Cl] [^111In, [^111In]InCl3] | – | much slower increase in light signal | 0.1 | – | – |
| [^99mTc]TcO4^− | – | much slower increase in light signal | 0.04 | did not show any detectable light signal | activity concentration at which light was detected by luminescence imaging [1]: 2.9×10^3 μCi/mL; only concentration that emitted very faint light ([1]; sequentially diluted solutions, 300 μL/well, 5 minutes): 2.9 mCi/mL |
| CSCC[C@H](N)C(=O)O [^35S, [^35S]methionine] | – | much slower increase in light signal; also recorded: did not show any noticeable increase in luminescence even at the highest activity | 0.02 | – | – |
| [18F-].[K+] [[^18F]KF] | – | – | – | – | difference in luminescence between chemical forms [3]: no significant difference in luminescence |
| [64Cu+2].[Cl-].[Cl-] [^64Cu, [^64Cu]CuCl2] | – | – | 0.8 | – | – |
| [131I-].[Na+] [^131I, [^131I]NaI] | (1) | – | 1 | sufficiently detectable light signal | – |
| OC[C@H]1OC(O)[C@H]([18F])[C@@H](O)[C@@H]1O (stereo partly drawn) [^18F, [^18F]FDG] | (1.7) | – | 2.0 | third strongest luminescence signals | difference in luminescence between chemical forms [3]: no significant difference in luminescence |
| [124I-].[Na+] [^124I, [^124I]NaI] | (6.2) | – | 5.1 | second | lowest concentration detected by Cerenkov luminescence ([4]; 10 μL injected at depth of 4 mm, imaging 1 minute): 0.3 μCi/μL; minimum activity for detection by Cerenkov luminescence ([4]; 10 μL injected at depth of 7 mm, scan time 1 min): 1 μCi/μL; lowest concentration detected by Cerenkov luminescence ([4]; depth of 4 mm, longer scan time): 0.1 μCi/μL; spatial resolution, Cerenkov imaging, each source clearly identified ([5]; 1 minute): 1.6 mm; spatial resolution, Cerenkov imaging, some sources separated from nearby sources ([5]; 1 minute): 1.2 mm; maximum spatial resolution, microPET imaging ([5]; 20 minutes): 2.4 mm |

Entries after “also recorded” stand apart in the source; their conditions may differ. Some entries repeat one wording, which the source may state once for all of them.
